The results in this text go back to paper PMC11686847.

By UniProt entry, the sequences of proteins in these tests, tags left out.
UniProt Q9H1A4: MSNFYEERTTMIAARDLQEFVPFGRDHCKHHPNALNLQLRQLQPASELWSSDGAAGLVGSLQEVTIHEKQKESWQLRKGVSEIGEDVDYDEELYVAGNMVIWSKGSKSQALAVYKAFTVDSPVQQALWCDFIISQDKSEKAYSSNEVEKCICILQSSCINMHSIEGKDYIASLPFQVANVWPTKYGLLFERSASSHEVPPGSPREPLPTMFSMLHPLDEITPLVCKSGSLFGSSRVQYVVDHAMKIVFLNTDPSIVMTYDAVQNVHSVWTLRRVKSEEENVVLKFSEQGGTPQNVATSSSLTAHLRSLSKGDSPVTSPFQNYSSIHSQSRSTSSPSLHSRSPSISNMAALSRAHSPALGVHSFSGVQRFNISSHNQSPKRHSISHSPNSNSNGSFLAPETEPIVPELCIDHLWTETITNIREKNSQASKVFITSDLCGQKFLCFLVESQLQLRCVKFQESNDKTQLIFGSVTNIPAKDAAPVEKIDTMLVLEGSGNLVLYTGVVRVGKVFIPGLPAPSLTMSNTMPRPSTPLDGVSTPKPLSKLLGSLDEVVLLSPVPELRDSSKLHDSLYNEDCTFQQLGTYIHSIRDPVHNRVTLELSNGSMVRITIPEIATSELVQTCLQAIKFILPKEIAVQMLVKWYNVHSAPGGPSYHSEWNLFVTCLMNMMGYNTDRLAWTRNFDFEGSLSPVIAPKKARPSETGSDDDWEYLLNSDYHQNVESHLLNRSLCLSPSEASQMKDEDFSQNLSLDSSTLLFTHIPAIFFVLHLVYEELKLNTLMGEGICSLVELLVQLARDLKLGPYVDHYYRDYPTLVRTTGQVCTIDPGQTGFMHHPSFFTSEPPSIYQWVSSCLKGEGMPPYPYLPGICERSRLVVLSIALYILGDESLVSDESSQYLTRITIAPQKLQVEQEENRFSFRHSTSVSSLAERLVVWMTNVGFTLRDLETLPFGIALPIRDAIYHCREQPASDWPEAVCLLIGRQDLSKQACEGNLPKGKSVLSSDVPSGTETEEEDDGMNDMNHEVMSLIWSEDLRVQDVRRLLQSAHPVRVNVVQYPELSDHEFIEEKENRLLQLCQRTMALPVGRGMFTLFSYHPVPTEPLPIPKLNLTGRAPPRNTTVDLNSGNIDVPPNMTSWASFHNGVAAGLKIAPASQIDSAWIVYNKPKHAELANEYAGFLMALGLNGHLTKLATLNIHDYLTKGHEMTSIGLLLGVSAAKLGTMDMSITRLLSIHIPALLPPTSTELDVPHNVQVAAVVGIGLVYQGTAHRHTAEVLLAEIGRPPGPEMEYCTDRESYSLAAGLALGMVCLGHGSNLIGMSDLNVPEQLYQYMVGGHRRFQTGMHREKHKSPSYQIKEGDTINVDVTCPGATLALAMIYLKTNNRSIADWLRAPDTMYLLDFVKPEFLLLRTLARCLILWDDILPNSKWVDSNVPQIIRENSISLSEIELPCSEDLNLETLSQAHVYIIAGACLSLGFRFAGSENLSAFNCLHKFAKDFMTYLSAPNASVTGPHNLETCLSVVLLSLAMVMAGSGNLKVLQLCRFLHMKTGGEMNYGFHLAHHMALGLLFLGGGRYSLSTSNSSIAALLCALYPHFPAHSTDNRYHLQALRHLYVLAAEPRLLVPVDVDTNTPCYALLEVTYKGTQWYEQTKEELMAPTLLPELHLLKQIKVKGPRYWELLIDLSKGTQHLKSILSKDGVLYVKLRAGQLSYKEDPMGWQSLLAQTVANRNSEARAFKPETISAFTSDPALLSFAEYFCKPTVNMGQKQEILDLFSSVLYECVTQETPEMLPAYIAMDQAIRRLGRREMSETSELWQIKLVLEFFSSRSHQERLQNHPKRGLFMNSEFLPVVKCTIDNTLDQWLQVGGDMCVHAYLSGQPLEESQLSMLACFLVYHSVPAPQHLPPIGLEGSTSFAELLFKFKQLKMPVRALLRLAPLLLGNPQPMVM
UniProt Q9BZB8: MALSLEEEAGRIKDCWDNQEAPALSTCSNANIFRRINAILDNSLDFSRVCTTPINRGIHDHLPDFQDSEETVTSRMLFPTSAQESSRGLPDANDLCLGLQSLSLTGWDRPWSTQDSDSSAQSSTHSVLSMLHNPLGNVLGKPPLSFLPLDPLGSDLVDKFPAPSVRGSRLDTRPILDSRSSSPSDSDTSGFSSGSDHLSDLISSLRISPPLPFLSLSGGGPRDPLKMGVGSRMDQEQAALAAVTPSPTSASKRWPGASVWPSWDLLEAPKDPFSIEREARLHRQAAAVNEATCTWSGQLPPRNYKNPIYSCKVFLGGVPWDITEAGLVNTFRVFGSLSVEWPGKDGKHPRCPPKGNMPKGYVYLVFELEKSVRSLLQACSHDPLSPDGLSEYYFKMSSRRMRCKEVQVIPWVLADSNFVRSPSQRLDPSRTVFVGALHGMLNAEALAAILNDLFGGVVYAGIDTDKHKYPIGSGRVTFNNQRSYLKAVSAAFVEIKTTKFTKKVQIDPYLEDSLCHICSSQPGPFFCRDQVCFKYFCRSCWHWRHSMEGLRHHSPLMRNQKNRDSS
UniProt Q13257: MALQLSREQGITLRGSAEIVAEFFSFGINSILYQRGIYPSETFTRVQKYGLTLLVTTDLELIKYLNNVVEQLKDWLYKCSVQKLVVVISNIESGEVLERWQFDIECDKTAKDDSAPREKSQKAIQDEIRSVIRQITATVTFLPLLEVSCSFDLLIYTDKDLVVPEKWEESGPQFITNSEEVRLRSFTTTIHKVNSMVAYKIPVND

In test [1] the target is T1, FLAG-tagged PATL2 L424S (human) (UniProt C9JE40).
T1 sequence: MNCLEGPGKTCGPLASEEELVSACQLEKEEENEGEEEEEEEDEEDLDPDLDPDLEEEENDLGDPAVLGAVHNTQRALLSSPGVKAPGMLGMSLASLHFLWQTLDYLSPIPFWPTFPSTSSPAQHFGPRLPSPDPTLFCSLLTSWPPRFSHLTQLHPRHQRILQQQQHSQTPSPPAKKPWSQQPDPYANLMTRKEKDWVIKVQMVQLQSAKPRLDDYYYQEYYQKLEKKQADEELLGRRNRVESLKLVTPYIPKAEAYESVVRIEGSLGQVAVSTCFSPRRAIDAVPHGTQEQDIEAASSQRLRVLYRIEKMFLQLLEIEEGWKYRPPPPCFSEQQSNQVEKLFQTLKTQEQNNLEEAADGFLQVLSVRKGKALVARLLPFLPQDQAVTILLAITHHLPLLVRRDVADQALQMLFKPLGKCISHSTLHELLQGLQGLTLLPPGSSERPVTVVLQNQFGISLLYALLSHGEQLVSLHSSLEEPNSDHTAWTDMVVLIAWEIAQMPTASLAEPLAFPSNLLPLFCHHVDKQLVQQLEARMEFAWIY
The test is described as follows: co-IP; FLAG-PATL2 (WT or mutants) transfected into 293T cells; FLAG-M2 magnetic beads overnight at 4 °C; blots for endogenous CDC23, MAD2L1, APC1, TUT7; without RNase A.

Test [2] addresses T2, FLAG-tagged wild-type PATL2 (human) (UniProt C9JE40).
T2 sequence: T1 sequence with S424L
The description is as above.

Test [3] addresses T3, FLAG-tagged PATL2 V401F/R402W (human) (UniProt C9JE40).
T3 sequence: T1 sequence with V401F, R402W, S424L
The test is described as above.

The target of test [4] is T4, HA-tagged wild-type PATL2 expressed in human oocytes (human) (UniProt C9JE40).
T4 sequence: T1 sequence with S424L
The test is described as follows: proximity ligation; human oocytes with or without microinjection of HA-PATL2 cRNA; antibodies against HA and the endogenous partner (TUT7 or CPEB1); PLA spots counted.

The target in test [5] is T2, FLAG-tagged wild-type PATL2 (human). The test is described as follows: co-IP; as a2 (anti-FLAG, 293T cells expressing FLAG-PATL2) with 50 ng/ul RNase A treatment.
The target is the same in test [6]. Briefly: co-IP; FLAG-PATL2 (WT or mutants) transfected into 293T cells; FLAG-M2 magnetic beads overnight at 4 °C; blots for endogenous CDC23, MAD2L1, APC1, TUT7; without RNase A. The source holds these as a separate data set.
Test [7] addresses T3, FLAG-tagged PATL2 V401F/R402W (human). The test is described as above. This is another data set of the same source.
The target of test [8] is T5, HA-tagged wild-type PATL2 (human) (UniProt C9JE40).
T5 sequence: T1 sequence with S424L
The test is described as follows: co-IP; 293T cells with ectopic HA-PATL2 or PATL2 variants; blots with anti-HA and anti-TUT7 (endogenous TUT7).

For test [9], the target named is T4, HA-tagged wild-type PATL2 expressed in human oocytes (human). Briefly: proximity ligation; human oocytes with or without microinjection of HA-PATL2 cRNA; antibodies against HA and the endogenous partner (TUT7 or CPEB1); PLA spots counted. The source holds these as a separate data set.

Residue numbers refer to the chain shown, from its start. Like-named read-outs stand apart in the source and are kept apart here. These are yes or no findings as the source states them, for the method shown. Binding seen in cells or lysates may run through a third protein. Some entries that bind do so weakly or less than the wild type. Sequences can lack the tags named with a protein.

For “APC1 (endogenous) (from UniProt Q9H1A4 1-1944)”, the binding entry in [1], in test [2] and in [3] was “binds” each time.

In the case of “CPEB1 (endogenous, human oocytes) (from UniProt Q9BZB8 1-566)”, the binding result in [4] is “binds”.

Consider “MAD2L1 (endogenous) (from UniProt Q13257 1-205)”, for which the binding result in test [5], in test [1], in [2] and in test [3] was “binds” throughout.

B1: TUT7 (endogenous, 293T cells) (enzyme, UniProt Q5VYS8 1-1495)
chain: MGDTAKPYFVKRTKDRGTMDDDDFRRGHPQQDYLIIDDHAKGHGSKMEKGLQKKKITPGNYGNTPRKGPCAVSSNPYAFKNPIYSQPAWMNDSHKDQSKRWLSDEHTGNSDNWREFKPGPRIPVINRQRKDSFQENEDGYRWQDTRGCRTVRRLFHKDLTSLETTSEMEAGSPENKKQRSRPRKPRKTRNEENEQDGDLEGPVIDESVLSTKELLGLQQAEERLKRDCIDRLKRRPRNYPTAKYTCRLCDVLIESIAFAHKHIKEKRHKKNIKEKQEEELLTTLPPPTPSQINAVGIAIDKVVQEFGLHNENLEQRLEIKRIMENVFQHKLPDCSLRLYGSSCSRLGFKNSDVNIDIQFPAIMSQPDVLLLVQECLKNSDSFIDVDADFHARVPVVVCREKQSGLLCKVSAGNENACLTTKHLTALGKLEPKLVPLVIAFRYWAKLCSIDRPEEGGLPPYVFALMAIFFLQQRKEPLLPVYLGSWIEGFSLSKLGNFNLQDIEKDVVIWEHTDSAAGDTGITKEEAPRETPIKRGQVSLILDVKHQPSVPVGQLWVELLRFYALEFNLADLVISIRVKELVSRELKDWPKKRIAIEDPYSVKRNVARTLNSQPVFEYILHCLRTTYKYFALPHKITKSSLLKPLNAITCISEHSKEVINHHPDVQTKDDKLKNSVLAQGPGATSSAANTCKVQPLTLKETAESFGSPPKEEMGNEHISVHPENSDCIQADVNSDDYKGDKVYHPETGRKNEKEKVGRKGKHLLTVDQKRGEHVVCGSTRNNESESTLDLEGFQNPTAKECEGLATLDNKADLDGESTEGTEELEDSLNHFTHSVQGQTSEMIPSDEEEEDDEEEEEEEEPRLTINQREDEDGMANEDELDNTYTGSGDEDALSEEDDELGEAAKYEDVKECGKHVERALLVELNKISLKEENVCEEKNSPVDQSDFFYEFSKLIFTKGKSPTVVCSLCKREGHLKKDCPEDFKRIQLEPLPPLTPKFLNILDQVCIQCYKDFSPTIIEDQAREHIRQNLESFIRQDFPGTKLSLFGSSKNGFGFKQSDLDVCMTINGLETAEGLDCVRTIEELARVLRKHSGLRNILPITTAKVPIVKFFHLRSGLEVDISLYNTLALHNTRLLSAYSAIDPRVKYLCYTMKVFTKMCDIGDASRGSLSSYAYTLMVLYFLQQRNPPVIPVLQEIYKGEKKPEIFVDGWNIYFFDQIDELPTYWSECGKNTESVGQLWLGLLRFYTEEFDFKEHVISIRRKSLLTTFKKQWTSKYIVIEDPFDLNHNLGAGLSRKMTNFIMKAFINGRRVFGIPVKGFPKDYPSKMEYFFDPDVLTEGELAPNDRCCRICGKIGHFMKDCPMRRKVRRRRDQEDALNQRYPENKEKRSKEDKEIHNKYTEREVSTKEDKPIQCTPQKAKPMRAAADLGREKILRPPVEKWKRQDDKDLREKRCFICGREGHIKKECPQFKGSSGSLSSKYMTQGKASAKRTQQES
In the case of B1, the binding result in test [6], in test [7] and in [8] was “binds” in each case.

B2: TUT7 (endogenous, human oocytes) (enzyme, UniProt Q5VYS8 1-1495)
chain: B1 chain
On to B2, for which the binding entry in test [9] is “binds”.
